The other results are listed elsewhere or left out.

By UniProt entry, the sequences of proteins in these tests, tags left out. Where a name states a change or a piece, a line headed by the entry shows the natural chain unless it says otherwise.
UniProt Q53GS9: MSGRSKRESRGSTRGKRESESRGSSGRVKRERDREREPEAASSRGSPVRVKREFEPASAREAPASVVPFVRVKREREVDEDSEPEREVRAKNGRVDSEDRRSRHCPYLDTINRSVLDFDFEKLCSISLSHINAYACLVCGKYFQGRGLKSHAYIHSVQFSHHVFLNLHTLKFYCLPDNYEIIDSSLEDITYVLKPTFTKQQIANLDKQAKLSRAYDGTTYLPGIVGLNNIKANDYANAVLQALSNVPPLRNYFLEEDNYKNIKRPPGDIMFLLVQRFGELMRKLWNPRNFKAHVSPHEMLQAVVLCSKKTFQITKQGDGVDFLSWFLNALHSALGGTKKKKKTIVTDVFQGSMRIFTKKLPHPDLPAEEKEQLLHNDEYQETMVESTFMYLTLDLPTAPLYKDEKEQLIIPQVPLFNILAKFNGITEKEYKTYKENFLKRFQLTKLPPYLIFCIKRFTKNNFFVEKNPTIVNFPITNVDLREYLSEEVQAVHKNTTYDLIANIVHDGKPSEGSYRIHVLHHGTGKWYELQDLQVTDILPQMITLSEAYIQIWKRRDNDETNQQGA
UniProt O95292, whole entry: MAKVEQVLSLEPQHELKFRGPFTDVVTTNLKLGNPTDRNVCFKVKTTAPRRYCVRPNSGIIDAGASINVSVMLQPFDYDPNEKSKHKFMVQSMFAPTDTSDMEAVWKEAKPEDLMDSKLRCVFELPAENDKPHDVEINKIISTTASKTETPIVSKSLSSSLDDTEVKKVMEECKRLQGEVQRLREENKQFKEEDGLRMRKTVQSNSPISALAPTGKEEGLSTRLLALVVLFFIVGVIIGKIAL
UniProt O75379: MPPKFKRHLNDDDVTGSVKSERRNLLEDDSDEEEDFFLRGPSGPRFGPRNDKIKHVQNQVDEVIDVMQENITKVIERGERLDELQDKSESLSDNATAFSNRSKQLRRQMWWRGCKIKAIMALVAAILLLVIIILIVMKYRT
UniProt Q9H267: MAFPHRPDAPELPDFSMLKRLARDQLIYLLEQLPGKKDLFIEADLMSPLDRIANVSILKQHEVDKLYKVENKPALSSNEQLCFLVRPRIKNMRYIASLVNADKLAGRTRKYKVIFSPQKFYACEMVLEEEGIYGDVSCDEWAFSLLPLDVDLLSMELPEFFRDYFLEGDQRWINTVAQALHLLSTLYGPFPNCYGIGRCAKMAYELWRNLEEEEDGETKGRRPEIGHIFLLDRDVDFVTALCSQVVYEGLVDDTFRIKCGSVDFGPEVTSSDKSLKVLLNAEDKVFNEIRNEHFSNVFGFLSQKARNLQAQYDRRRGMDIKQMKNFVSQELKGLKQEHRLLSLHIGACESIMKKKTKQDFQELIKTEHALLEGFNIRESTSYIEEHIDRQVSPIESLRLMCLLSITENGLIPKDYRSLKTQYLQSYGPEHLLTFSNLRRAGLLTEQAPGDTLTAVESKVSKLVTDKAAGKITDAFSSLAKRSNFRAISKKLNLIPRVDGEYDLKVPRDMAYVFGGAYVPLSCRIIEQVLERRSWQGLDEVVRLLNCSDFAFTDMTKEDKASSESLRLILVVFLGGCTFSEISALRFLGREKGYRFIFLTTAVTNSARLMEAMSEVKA
UniProt Q9UMX0, whole entry: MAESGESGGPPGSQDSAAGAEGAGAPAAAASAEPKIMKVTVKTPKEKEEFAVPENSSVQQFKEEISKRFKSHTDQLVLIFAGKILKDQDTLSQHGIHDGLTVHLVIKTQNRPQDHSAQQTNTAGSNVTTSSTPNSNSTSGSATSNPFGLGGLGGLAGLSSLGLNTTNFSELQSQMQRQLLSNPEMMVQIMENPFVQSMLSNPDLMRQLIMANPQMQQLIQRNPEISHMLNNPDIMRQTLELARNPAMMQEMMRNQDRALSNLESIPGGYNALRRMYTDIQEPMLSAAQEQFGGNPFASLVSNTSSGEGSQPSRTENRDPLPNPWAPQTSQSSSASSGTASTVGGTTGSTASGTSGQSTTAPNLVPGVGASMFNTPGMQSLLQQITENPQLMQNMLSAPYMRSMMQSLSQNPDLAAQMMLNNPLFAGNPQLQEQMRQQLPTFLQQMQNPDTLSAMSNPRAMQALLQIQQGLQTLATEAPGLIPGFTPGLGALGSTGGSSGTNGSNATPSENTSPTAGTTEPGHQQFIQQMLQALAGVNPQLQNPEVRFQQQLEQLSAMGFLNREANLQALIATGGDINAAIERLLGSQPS
UniProt Q92575: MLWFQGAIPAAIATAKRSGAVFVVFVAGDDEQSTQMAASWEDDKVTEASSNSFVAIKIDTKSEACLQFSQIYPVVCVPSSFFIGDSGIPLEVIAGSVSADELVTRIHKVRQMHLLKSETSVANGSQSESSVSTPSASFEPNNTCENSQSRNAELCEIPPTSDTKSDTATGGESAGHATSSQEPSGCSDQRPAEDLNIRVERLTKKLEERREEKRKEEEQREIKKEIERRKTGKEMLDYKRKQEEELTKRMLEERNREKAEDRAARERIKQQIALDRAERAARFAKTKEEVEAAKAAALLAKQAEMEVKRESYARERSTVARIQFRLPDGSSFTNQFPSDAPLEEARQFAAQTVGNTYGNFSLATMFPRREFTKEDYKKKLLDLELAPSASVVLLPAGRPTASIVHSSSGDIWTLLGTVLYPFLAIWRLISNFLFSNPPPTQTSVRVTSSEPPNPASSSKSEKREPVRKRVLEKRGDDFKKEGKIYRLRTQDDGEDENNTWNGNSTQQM
UniProt P68366, whole entry: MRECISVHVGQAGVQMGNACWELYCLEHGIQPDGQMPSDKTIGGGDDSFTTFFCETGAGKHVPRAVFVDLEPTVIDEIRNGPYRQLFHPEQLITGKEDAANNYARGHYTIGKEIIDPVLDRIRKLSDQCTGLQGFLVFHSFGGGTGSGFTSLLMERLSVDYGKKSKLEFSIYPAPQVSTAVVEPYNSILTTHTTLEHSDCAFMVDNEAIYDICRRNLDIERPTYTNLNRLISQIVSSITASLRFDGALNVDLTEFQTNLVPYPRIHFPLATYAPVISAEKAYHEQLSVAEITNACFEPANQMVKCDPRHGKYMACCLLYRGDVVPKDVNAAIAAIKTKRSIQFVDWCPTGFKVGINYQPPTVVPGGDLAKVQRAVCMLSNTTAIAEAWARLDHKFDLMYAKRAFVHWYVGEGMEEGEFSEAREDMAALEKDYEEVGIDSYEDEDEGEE
UniProt Q9P275: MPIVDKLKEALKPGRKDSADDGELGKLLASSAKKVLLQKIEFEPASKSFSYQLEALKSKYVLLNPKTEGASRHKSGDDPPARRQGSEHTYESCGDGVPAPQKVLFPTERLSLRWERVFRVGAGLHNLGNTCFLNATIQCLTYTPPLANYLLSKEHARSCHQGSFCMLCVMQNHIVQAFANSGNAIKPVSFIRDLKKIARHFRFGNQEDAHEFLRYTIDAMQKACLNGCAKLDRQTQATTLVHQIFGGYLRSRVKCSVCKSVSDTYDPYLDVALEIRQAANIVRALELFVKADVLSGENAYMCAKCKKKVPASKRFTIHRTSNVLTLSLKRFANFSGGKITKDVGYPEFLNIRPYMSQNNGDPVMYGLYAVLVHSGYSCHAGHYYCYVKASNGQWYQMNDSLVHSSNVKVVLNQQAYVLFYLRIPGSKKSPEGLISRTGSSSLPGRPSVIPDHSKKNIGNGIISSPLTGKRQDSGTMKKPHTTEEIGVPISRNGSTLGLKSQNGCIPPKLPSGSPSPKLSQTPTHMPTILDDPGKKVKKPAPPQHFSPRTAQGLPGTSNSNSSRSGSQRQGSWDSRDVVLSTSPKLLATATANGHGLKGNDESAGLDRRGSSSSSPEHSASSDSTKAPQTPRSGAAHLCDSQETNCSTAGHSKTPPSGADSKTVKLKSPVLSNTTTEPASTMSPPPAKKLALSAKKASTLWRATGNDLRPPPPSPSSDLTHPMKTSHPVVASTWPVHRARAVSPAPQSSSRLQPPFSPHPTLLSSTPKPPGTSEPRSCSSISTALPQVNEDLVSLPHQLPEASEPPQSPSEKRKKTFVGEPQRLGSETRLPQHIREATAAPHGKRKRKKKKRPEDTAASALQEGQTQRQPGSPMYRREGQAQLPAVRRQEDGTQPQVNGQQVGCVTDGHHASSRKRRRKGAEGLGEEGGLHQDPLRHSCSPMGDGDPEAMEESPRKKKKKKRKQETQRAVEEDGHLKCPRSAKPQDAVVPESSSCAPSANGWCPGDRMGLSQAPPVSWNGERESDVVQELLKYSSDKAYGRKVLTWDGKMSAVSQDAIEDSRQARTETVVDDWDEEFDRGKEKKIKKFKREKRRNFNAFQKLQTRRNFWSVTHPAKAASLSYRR
UniProt O94782: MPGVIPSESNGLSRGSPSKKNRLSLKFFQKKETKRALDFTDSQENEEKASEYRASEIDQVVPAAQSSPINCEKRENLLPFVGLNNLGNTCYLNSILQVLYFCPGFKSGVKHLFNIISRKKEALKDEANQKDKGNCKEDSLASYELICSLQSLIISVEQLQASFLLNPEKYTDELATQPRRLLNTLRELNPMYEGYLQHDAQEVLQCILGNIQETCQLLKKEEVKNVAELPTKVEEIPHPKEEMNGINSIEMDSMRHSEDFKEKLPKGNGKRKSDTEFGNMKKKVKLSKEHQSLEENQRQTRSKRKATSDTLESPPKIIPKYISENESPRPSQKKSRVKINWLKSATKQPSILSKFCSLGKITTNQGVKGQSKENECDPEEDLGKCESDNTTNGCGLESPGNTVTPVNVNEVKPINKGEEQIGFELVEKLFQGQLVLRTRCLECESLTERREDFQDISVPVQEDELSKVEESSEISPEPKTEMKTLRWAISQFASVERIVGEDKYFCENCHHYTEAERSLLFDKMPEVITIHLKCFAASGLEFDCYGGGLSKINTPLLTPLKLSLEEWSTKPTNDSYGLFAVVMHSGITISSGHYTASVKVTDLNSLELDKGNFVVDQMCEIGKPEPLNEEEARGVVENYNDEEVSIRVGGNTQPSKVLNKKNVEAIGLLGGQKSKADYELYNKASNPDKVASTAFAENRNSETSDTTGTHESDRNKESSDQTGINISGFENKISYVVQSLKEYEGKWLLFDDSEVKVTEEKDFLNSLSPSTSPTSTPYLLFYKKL
UniProt Q8IV63: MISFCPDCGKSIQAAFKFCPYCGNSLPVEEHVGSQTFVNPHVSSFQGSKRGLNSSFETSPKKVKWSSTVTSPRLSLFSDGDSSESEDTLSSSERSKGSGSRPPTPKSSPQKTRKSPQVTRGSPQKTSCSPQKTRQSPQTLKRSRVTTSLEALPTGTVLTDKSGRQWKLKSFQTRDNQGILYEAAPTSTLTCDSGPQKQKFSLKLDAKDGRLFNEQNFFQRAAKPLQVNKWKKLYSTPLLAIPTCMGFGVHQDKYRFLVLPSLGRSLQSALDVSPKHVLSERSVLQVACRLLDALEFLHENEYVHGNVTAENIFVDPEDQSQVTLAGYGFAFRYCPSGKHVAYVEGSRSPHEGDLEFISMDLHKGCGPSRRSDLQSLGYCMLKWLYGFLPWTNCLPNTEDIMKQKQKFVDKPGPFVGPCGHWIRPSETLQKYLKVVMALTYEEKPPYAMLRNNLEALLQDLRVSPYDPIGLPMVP
UniProt P23381: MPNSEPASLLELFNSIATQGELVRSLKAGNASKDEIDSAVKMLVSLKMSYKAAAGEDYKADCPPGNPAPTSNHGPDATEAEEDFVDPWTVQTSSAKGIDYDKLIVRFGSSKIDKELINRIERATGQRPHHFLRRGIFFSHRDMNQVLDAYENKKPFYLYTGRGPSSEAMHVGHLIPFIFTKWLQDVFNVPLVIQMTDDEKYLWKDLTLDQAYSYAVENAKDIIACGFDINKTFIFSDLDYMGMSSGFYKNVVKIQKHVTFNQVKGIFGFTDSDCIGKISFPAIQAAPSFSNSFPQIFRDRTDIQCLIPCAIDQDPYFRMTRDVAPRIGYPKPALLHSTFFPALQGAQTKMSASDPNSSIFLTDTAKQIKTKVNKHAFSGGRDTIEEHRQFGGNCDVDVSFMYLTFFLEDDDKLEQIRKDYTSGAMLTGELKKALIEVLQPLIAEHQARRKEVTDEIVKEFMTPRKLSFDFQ
UniProt Q9NPD8: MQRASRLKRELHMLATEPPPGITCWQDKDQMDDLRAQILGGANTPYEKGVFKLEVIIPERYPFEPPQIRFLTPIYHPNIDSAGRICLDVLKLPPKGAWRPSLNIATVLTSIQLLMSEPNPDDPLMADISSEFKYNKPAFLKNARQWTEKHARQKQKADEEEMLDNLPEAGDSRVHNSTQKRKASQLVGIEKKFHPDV
UniProt Q8WTW4: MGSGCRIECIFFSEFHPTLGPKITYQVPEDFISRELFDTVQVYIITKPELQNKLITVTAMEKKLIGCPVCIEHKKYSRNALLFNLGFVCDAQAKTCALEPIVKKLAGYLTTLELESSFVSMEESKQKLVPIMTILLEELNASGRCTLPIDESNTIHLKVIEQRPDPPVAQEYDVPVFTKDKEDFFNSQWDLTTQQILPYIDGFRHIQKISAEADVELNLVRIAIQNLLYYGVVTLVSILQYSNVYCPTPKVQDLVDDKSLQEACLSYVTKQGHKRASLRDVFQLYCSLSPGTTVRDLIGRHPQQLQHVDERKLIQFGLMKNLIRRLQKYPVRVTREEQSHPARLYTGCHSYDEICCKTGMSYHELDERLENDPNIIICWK

Compound in this assay: COc1ccc(Cn2ccc3cc(C)c(C(=O)NO)cc32)cc1
The assay is described as follows: dose-dependent thermal stabilisation call (2D-TPP, DLPTP, 10% FDR) (binary (1 = stabilised)); higher = stabilised by the compound. Particulars: system: HL-60 intact cells; concentration range 0.04-10 µM. On the procedure:
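2D thermal proteome profiling in intact HL-60 cells treated with BRD-3811 (0, 0.04, 0.29, 2, 10 uM) for 90 min at 37 C, then heated 3 min at one of 12 temperatures (42-63.9 C). Soluble protein was quantified by TMT10 MS. The value is the DLPTP call of the paper: dose-dependent thermal stabilisation over all temperatures at 10% FDR (F-test of a dose-response against a flat model); one experiment, one call per tested protein.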
Regarding UBQLN4 (UniProt Q9NRR5), the “dose-dependent thermal stabilisation call” value is inactive: 0.

In the case of TTPAL (UniProt Q9BTX7), the “dose-dependent thermal stabilisation call” value is inactive: 0.

UCKL1 (UniProt Q9NWZ5): the “dose-dependent thermal stabilisation call” value is inactive: 0.

For USP39 (UniProt Q53GS9), the “dose-dependent thermal stabilisation call” value is inactive: 0.

As for TWSG1 (UniProt Q9GZX9), the “dose-dependent thermal stabilisation call” value is inactive: 0.

Regarding UBE3B (UniProt Q7Z3V4), the “dose-dependent thermal stabilisation call” value is inactive: 0.

Turning to TTF2 (UniProt Q9UNY4), the “dose-dependent thermal stabilisation call” value is inactive: 0.

Turning to VAPB (UniProt O95292), the “dose-dependent thermal stabilisation call” value was inactive: 0.

As to VAMP4 (UniProt O75379), the “dose-dependent thermal stabilisation call” value is inactive: 0.

In the case of UAP1 (UniProt Q16222), the “dose-dependent thermal stabilisation call” value was inactive: 0.

With TUBGCP3 (UniProt Q96CW5), the “dose-dependent thermal stabilisation call” value was inactive: 0.

Consider TYW3 (UniProt Q6IPR3), for which the “dose-dependent thermal stabilisation call” value is inactive: 0.

Regarding UBR7 (UniProt Q8N806), the “dose-dependent thermal stabilisation call” value is inactive: 0.

Turning to VPS13A (UniProt Q96RL7), the “dose-dependent thermal stabilisation call” value is inactive: 0.

As to VPS33B (UniProt Q9H267), the “dose-dependent thermal stabilisation call” value was inactive: 0.

Consider VPS13B (UniProt Q7Z7G8), for which the “dose-dependent thermal stabilisation call” value was inactive: 0.

For the target UBQLN1 (UniProt Q9UMX0), the “dose-dependent thermal stabilisation call” value is inactive: 0.

As for VGLL4 (UniProt Q14135), the “dose-dependent thermal stabilisation call” value is inactive: 0.

Consider UBXN4 (UniProt Q92575), for which the “dose-dependent thermal stabilisation call” value was inactive: 0.

For the target VDAC3 (UniProt Q9Y277), the “dose-dependent thermal stabilisation call” value is inactive: 0.

As to WDR1 (UniProt O75083), the “dose-dependent thermal stabilisation call” value was inactive: 0.

As to TUBA4A (UniProt P68366), the “dose-dependent thermal stabilisation call” value is inactive: 0.

In the case of UBE2H (UniProt P62256), the “dose-dependent thermal stabilisation call” value is inactive: 0.

Take USP36 (UniProt Q9P275): the “dose-dependent thermal stabilisation call” value was inactive: 0.

Take USP20 (UniProt Q9Y2K6): the “dose-dependent thermal stabilisation call” value is inactive: 0.

With WASF1 (UniProt Q92558), the “dose-dependent thermal stabilisation call” value is inactive: 0.

As for USP1 (UniProt O94782), the “dose-dependent thermal stabilisation call” value was inactive: 0.

Turning to UBA2 (UniProt Q9UBT2), the “dose-dependent thermal stabilisation call” value was inactive: 0.

VAC14 (UniProt Q08AM6): the “dose-dependent thermal stabilisation call” value is inactive: 0.

For VRK3 (UniProt Q8IV63), the “dose-dependent thermal stabilisation call” value is inactive: 0.

Take VISA (UniProt Q7Z434): the “dose-dependent thermal stabilisation call” value was inactive: 0.

For TUBGCP6 (UniProt Q96RT7), the “dose-dependent thermal stabilisation call” value was inactive: 0.

For the target WARS (UniProt P23381), the “dose-dependent thermal stabilisation call” value was inactive: 0.

With TXNDC12 (UniProt O95881), the “dose-dependent thermal stabilisation call” value is inactive: 0.

In the case of UBE2T (UniProt Q9NPD8), the “dose-dependent thermal stabilisation call” value was inactive: 0.

For the target UIMC1 (UniProt Q96RL1), the “dose-dependent thermal stabilisation call” value is inactive: 0.

In the case of TUSC4 (UniProt Q8WTW4), the “dose-dependent thermal stabilisation call” value is inactive: 0.

For TXNIP (UniProt Q9H3M7), the “dose-dependent thermal stabilisation call” value is inactive: 0.

For WBP4 (UniProt O75554), the “dose-dependent thermal stabilisation call” value is inactive: 0.

On to UBE2K (UniProt P61086), for which the “dose-dependent thermal stabilisation call” value is inactive: 0.

The record behind these values is the supplement of paper PMC7666118.
